In PubChem BioAssay (EPA / NIEHS):
The inconclusive results got no clear call from the source; some entries with a clear call stand among them for comparison. A potency beside an inconclusive call is a rough fit, not a confirmed value. Activity calls are given as the source filed them. How the source made its calls: active means hit-call score of the fitted dose curve at least 0.9, where 1 is the maximum; inconclusive means response in the unintended direction; inactive means score below 0.9.

assay: ArunA_NOG_NeuritesPerNeuron: ArunA Biomedical's Neurite Outgrowth (NOG) Assay for Neurites Per Neuron (AID 2283758)
Protocol: ArunA_NOG (Neurite Outgrowth) is a cell-based, image-based assay that uses human H9-derived embryonic differentiated neurons (hNN). Measurements were taken 48 hours after chemical dosing in a 96-well plate.ArunA_NOG_NeuritesPerNeuron is an assay component measured from the ArunA_NOG assay. It is designed to make measurements of neurite outgrowth related to number of neurites per neuron, using a form of morphology reporter, as detected with fluorescence intensity signals by HCS Fluorescent Imaging technology. Data from the assay component ArunA_NOG_NeuritesPerNeuron was analyzed at the endpoint, ArunA_NOG_NeuritesPerNeuron, in the positive analysis fitting direction relative to DMSO as the negative control and baseline of activity. Using a type of morphology reporter, loss-of-signal activity can be used to understand developmental effects. To generalize the intended target to other relatable targets, this assay endpoint is annotated to the neurodevelopment intended target family, where the subfamily is neurite outgrowth.
Chemical treatment: Differentiated hNN cells were seeded and immediately exposed to test medium for 48 h. Following chemical exposure, cell bodies were stained with Hoechst 33,258 to quantitate viable neuron count and neurites were labeled with bIII-tubulin/DyLight1 488. High content imaging assessed the neurite outgrowth endpoints: neurite total length per neuron (um), neurite count per neuron, and branch points per neurite using the methods described in (Harrill et al 2010). Measurements of hN2 morphology: (Beta)III-Tubulin stained cell cultures were allowed to warm to room temperature. Plates were then loaded into a Cellomics ArrayScan VTI HCS reader high-content imaging system (ThermoFisher Scientific, Waltham, MA) for automated image acquisition and morphometric analyses. This system consists of an epifluorescent microscope with an EXFO X-cite 120 metal-halide arc lamp, motorized imaging objectives, stage and excitation/emission filter wheel and a 12-bit high-resolution CCD camera connected to a Dell Intel Xenon computer terminal with 2 GHz processor. Image acquisition and storage was performed using the vHCS Scan software package, version 6.6.1.4. Matched fluorescent images of Hoechst-stained nuclei and (beta)III-tubulin/DyLight 488 immunolabeled cells were acquired using 365/515 (channel 1) and 475/515 (channel 2) nm excitation/emission filter couplings, respectively, with a 20x objective (Zeiss, Inc., Thornwood, NY). Fixed integration times for image acquisition in each channel were determined by manual sampling of control-treated wells across multiple plates. A matching pseudocolored composite image of Hoechst-stained nuclei (blue) and (beta)III-tubulin/DyLight 488 labeled cell bodies and neurites (green). The Neural Profiling BioApplication performs automated image analysis in a sequential manner as follows. Briefly, nuclei were identified in channel 1 as bright objects on a dark background. Nuclei with size and intensity values outside of the ranges determined a priori for viable cells were identified in the channel 1 image and rejected from further analyses. Spatial coordinates from the channel 1 image were then superimposed on the matching channel 2 image. Cell body masks in channel 2 were then cast based on positional data from channel 1 nuclei and a set of user-defined geometric and signal intensity-based parameters. Cell bodies corresponding to valid neurons were then selected and invalid cell bodies rejected. Parameters for valid cell body selection include the presence of exactly one nucleus within the cell body mask, a requirement that the nucleus met the gating criteria imposed in channel 1, a requirement that at least 25% of the nucleus perimeter is bounded by DyLight 488 labeled cytoplasm and a requirement that the total cell body area not exceed 4000 um2. Neurites emerging from the selected cell bodies were then individually traced and measured. […]

| Structure (SMILES) | AC50 | outcome |
| --- | --- | --- |
| CCCCCCCCOC(=O)c1cc(O)c(O)c(O)c1 | inconclusive: 50 µM | – |
| CC(C)CCCCCCc1ccc(O)cc1 | inconclusive: 0.321 µM | – |
| O=C(Nc1ccc(Cl)cc1)Nc1ccc(Cl)c(Cl)c1 | inconclusive: 50 µM | – |
| O=C(O)Cc1cc(I)c(Oc2cc(I)c(O)c(I)c2)c(I)c1 | – | inactive |
| CCCCc1ccc2c(n1)[C@@H](c1ccc(OC)cc1C[C@H](C)C(=O)O)[C@H](C(=O)O)[C@H]2c1ccc2c(c1)OCO2 | inconclusive: 50 µM | – |
| O=P(OC(CCl)CCl)(OC(CCl)CCl)OC(CCl)CCl | – | inactive |
| Oc1ccc2ccccc2c1N=Nc1ccccc1 | inconclusive: 1.6 µM | – |
| CC(C)(c1ccc(O)cc1)c1ccc(O)cc1 | – | inactive |
| N[C@@H](Cc1cc(I)c(Oc2ccc(O)c(I)c2)c(I)c1)C(=O)O | inconclusive: 1.29 µM | – |
| Cc1ccc(-c2cc(C(F)(F)F)nn2-c2ccc(S(N)(=O)=O)cc2)cc1 | active: 13.9 µM | – |
